“And” between values parts separate entries of the source, which are not always exact repeats. Identical values can stand only once. About 750 (4.2%) of roughly 18,000 compounds were called active. The shares of active, inactive and inconclusive entries below differ from those in the screen. Calls follow the shape of the full dose curve; tested in HEK293 cells. Potencies beside an inconclusive call are fits to weak or partial responses and may not hold up. Where a structure was tested more than once in an assay, its records may differ in their call.
Experiment: qHTS for Inhibitors of binding or entry into cells for Lassa Virus
Conditions: Lassa virus pseudotyped entry inhibition, cell-based qHTS; activity change, negative = inhibition: at 49.2 µM (top of the series) unless noted
% is scaled to controls: 0 for no effect and ±100 for the full control effect; potency is read from the fitted curve at half-maximal effect.

SMILES | Potency | activity change, negative = inhibition
Cc1cccc2c(N=Nc3ccc(S(N)(=O)=O)cc3)c(O)[nH]c12 | inactive | –
COC1C(O)C(C)O[C@H](OC2CC[C@@]3(C=O)C4CC[C@]5(C)C(C6=CC(=O)OC6)CC[C@@]5(O)C4CC[C@@H]3C2)C1O (stereo partly specified) | active: 0.1 µM | –
CC[C@]1(O)CC(O[C@@H]2CC(N(C)C)C(O)C(C)O2)c2c(cc3c(c2O)C(=O)c2c(O)ccc(O)c2C3=O)C1C(=O)OC (stereo partly specified) | inactive | –
CCCC(=O)O[C@]1(C(=O)CCl)[C@@H](C)C[C@H]2[C@@H]3CCC4=CC(=O)C=C[C@]4(C)[C@@]3(F)C(=O)C[C@@]21C | inconclusive: 35.5 µM [inhibitor, partial curve] | –
CO/C=C(/C(=O)OC)c1ccccc1Oc1cc(Oc2ccccc2C#N)ncn1 | active: 22.4 µM | –
CCC1CN(CCNC(=O)c2cccc(N3CCCC3=O)c2)Cc2cc(OC)ccc2O1 (stereo unspecified) | inconclusive: 0.794 µM [inhibitor, full curve, poor fit] | –
COC(=O)C(=Cc1cc(Br)c(OC)c(Br)c1)C(=O)OC | inactive | –
C[C@]12[C@H](O)CC3C(CC[C@@H]4C[C@@H](O)CC[C@]34C)[C@@]1(O)CC[C@@H]2C1=CC(=O)OC1 (stereo partly specified) | active: 1.12 µM | –
COc1ccc2c(c1)OC(=O)CC2c1ccc2c(c1)OCO2 (stereo unspecified) | inconclusive: 50.1 µM [inhibitor, single point] | –
CC1=NN(c2ccccc2)C(=O)C1 | inconclusive: 100 µM [inhibitor, partial curve, poor fit] | –
Cc1c(C(=O)NCc2ccco2)cnn1-c1ncc2c(n1)-c1ccccc1CC2 | inactive | –
COC(=O)C1=C(C)NC(C)=C(C(=O)O[C@@H]2CCCN(Cc3ccccc3)C2)[C@@H]1c1cccc([N+](=O)[O-])c1 | inconclusive: 11.2 µM [inhibitor, partial curve] | –
COc1cccc(Cc2nc3cccnc3n2C2CCN(C(=O)c3n[nH]c4c3CCCC4)CC2)c1 | inactive | –
Nc1nc(-c2nn(Cc3ccccc3F)c3ncccc23)ncc1C1CC1 | active: 0.891 µM | –
COC(=O)CC1c2ccccc2C=C(C)N1C(=O)OC (stereo unspecified) | inactive | –
O=C(OC1C[C@@H]2CC3C[C@H](C1)N2CC3=O)c1c[nH]c2ccccc12 (stereo partly specified) | inconclusive: 35.5 µM [inhibitor, single point] | –
Nc1ncnc2c1nc(Cl)n2C1OC(CO)C(O)C1O (stereo unspecified) | inconclusive: 5.01 µM [inhibitor, partial curve, poor fit] | –
COC(=O)c1cccc(C(=O)NCc2nc(-c3cccc(NC(=O)c4ccoc4C)c3)oc2C)c1 | inconclusive: 20 µM [inhibitor, single point] | –
COc1ccc(O)cc1 | inconclusive: 17.8 µM [inhibitor, partial curve] | –
CC(=O)NC(Cc1ccccc1)C(=O)O (stereo unspecified) | inactive | –
CN1CCN(C2Cc3ccccc3Sc3ccc(Cl)cc32)CC1 (stereo unspecified) | inconclusive: 25.1 µM [inhibitor, partial curve] | –

SMILES | Potency | activity change, negative = inhibition
C=C(NC(=O)C(=C)NC(=O)c1csc(C2=NC3c4csc(n4)C4NC(=O)c5csc(n5)C(C(C)(O)C(C)O)NC(=O)C5CSC(=N5)C(=CC)NC(=O)C(C(C)O)NC(=O)c5csc(n5)C3(CC2)NC(=O)C(C)NC(=O)C(=C)NC(=O)C(C)NC(=O)C(C(C)CC)NC2C=Cc3c(C(C)O)cc(nc3C2O)C(=O)OC4C)n1)C(N)=O (stereo unspecified) | inconclusive: 35.5 µM [inhibitor, single point] | –
COc1ccccc1C1CN(Cc2cccc(O)c2)Cc2ccccc2O1 (stereo unspecified) | inactive | –
CC(C)[C@@]1(NC(=O)[C@@H]2C[C@H]3c4cccc5[nH]cc(c45)C[C@@H]3N(C)C2)O[C@@]2(O)[C@H]3CCCN3C(=O)[C@H](Cc3ccccc3)N2C1=O | inactive | –
COCCN1C(=O)CC[C@@]23C1=NC(C(=O)OC)=C(C(=O)OC)[C@@H]2N(C)c1ccccc13 | – | inactive: -17.6% [at 8.59 µM]
C=CC[C@](C)(O)c1ccccc1 | active: 0.75 µM | –
CN[C@@H]1[C@H](O[C@H]2[C@H](O[C@H]3[C@H](O)[C@@H](O)[C@H](N=C(N)N)[C@@H](O)[C@@H]3N=C(N)N)O[C@@H](C)[C@]2(O)CO)O[C@@H](CO)[C@H](O)[C@H]1O | inconclusive: 28.2 µM [inhibitor, partial curve] | –
C=C1C2CC[C@@]3(C)C(c4ccoc4)OC(=O)C[C@@]13OC1CC(OC(C)=O)C(C)(C)C(CC(=O)OC)[C@@]12C (stereo partly specified) | inconclusive: 10 µM [inhibitor, partial curve, poor fit] | –
C#Cc1cccc(Nc2ncnc3cc(OCCOC)c(OCCOC)cc23)c1 | inconclusive: 28.2 µM [inhibitor, single point] | –
CC(C)Nc1cccnc1N1CCN(C(=O)c2cc3cc(NS(C)(=O)=O)ccc3[nH]2)CC1 | inactive | –
Cc1cccc(C(=O)NCc2nc(-c3cccc(NC(=O)c4ccoc4C)c3)oc2C)n1 | inconclusive: 35.5 µM [inhibitor, single point] | –
COC(=O)C1=C[C@H]([C@@H](C)[C@H](OC)c2ccccc2Br)[C@H]2c3ccccc3O[C@@H]12 | active: 1.68 µM | –
CCc1c2c(nc3ccc(O)cc13)-c1cc3c(c(=O)n1C2)COC(=O)[C@]3(O)CC | inconclusive: 7.08 µM [inhibitor, full curve, poor fit] | –
COc1cc(OC)c2c(-c3cccc(-c4ccc(N(C)C)cc4)c3)cc(=O)oc2c1 | inconclusive: 1.41 µM [inhibitor, full curve, poor fit] | –
CN1C(=O)c2ccccc2C1=O | inactive | –
CC(=O)[C@H](CC(C)C)NC(=O)[C@@H](CC(C)C)NC(=O)[C@H](CC(C)C)NC(=O)OCc1ccccc1 | active: 0.316 µM | –
Cn1c(SCC2CCCO2)nnc1C1CCN(Cc2ccc(-c3cccc(Cl)c3)o2)CC1 (stereo unspecified) | inactive | –
CC(C)[C@H](NC(=O)[C@H](CCC(=O)O)NC(=O)[C@H](Cc1ccccc1)NC(=O)[C@H](C)NC(=O)[C@@H](N)Cc1ccc(O)cc1)C(=O)N[C@H](C(=O)NCC(N)=O)C(C)C | inactive | –
CC(C)Nc1ccc(Nc2ccccc2)cc1 | inconclusive: 35.5 µM [inhibitor, single point] | –
CCCCCCCCCCCCCCC[C@H](O)[C@@H](N)CO | inconclusive: 31.6 µM [inhibitor, partial curve] | –
Cc1cc2nc3c(=O)[nH]c(=O)nc-3n(C)c2cc1C=O | inconclusive: 35.5 µM [inhibitor, single point] | –
CCOP(=S)(OCC)OCCSCC | inactive | –

SMILES | Potency | activity change, negative = inhibition
CC(=O)Nc1cccc(-c2cc3c(c4c2ccn4C)C2CCC3C2)c1 (stereo unspecified) | inactive | –
CC(=O)N1CCN(c2ccc(OCC3CO[C@@](Cn4ccnc4)(c4ccc(Cl)cc4Cl)O3)cc2)CC1 (stereo partly specified) | inconclusive: 20 µM [inhibitor, single point] | –
C=CC(C1=CC(=O)C(OC)=CC1=O)c1ccccc1 (stereo unspecified) | inconclusive: 35.5 µM [inhibitor, single point] | –
CCCCCCCCCCCCOCCOCCOCCOCCOCCOCCOCCOCCOCCO | inconclusive: 28.2 µM [inhibitor, partial curve] and inconclusive: 35.5 µM [inhibitor, single point] | –
COc1cccc(-c2nc(Nc3ccncc3)c3ccccc3n2)c1 | inconclusive: 8.91 µM [inhibitor, partial curve, poor fit] | –
COC(=O)/C=C/c1ccc(C(=O)NCC(=O)N[C@@H](CCC(=O)OC)C(=O)N[C@@H](CC(C)C)C(N)=O)cc1 | inactive | –
Clc1ccc(C(Cn2ccnc2)OCc2ccsc2Cl)c(Cl)c1 (stereo unspecified) | inconclusive: 35.5 µM [inhibitor, partial curve] | –
CC1=C(C(=O)Nc2ccc3[nH]ncc3c2)C(c2ccc(F)cc2)NC(=O)N1 (stereo unspecified) | – | inconclusive: 5.72% [inhibitor]
O[C@H]1CN(Cc2cccs2)[C@@H](c2ccccc2)C[C@H]1n1cc(C2CC2)nn1 | inactive | –
COc1cc2c(c(OC)c1OC)-c1c(cc3c(c1OC)OCO3)CC(C)C(C)C2 (stereo unspecified) | inconclusive: 35.5 µM [inhibitor, single point] | –
OC[C@@H]1[C@@H](c2ccc(F)cc2)C(c2ccccc2)=NN1c1ccccc1 | inconclusive: 31.6 µM [inhibitor, single point] | –
COc1ccc(C=C2c3ccccc3C(=O)c3ccccc32)cc1O | inconclusive: 1.26 µM [inhibitor, partial curve, poor fit] | –
Cc1ccc(CN2CC(N3CCN(C(=O)c4ccco4)CC3)CS2(=O)=O)cc1 (stereo unspecified) | inactive | –
CCOC(=O)N1CCN(/[N+]([O-])=N/Oc2ccc([N+](=O)[O-])cc2[N+](=O)[O-])CC1 | inconclusive: 6.31 µM [inhibitor, single point] | –
Cc1ccc(S(=O)(=O)N[C@@H](Cc2ccccc2)C(=O)CCl)cc1 | active: 35.5 µM | –
COc1cc(NCc2ccc3nc(N)nc(N)c3c2C)cc(OC)c1OC | inconclusive: 39.8 µM [inhibitor, partial curve, poor fit] and inconclusive: 5.62 µM [inhibitor, full curve, poor fit] | –
C[C@@H]1C[C@H](C)C[C@H](C)[C@@H](O)CC(=O)O[C@H]([C@H]2CCC[C@H]2C(=O)O)C/C=C/C=C(/C#N)[C@H](O)[C@@H](C)C1 | inconclusive: 14.1 µM [inhibitor, partial curve] | –
Cc1cccc(-c2[nH]c(C(C)(C)C)nc2-c2ccc3c(c2)OCO3)n1 | inconclusive: 7.08 µM [inhibitor, full curve, poor fit] | –
Oc1ccc2c3c1O[C@H]1c4[nH]c5ccccc5c4C[C@@]4(O)C(C2)N(CC2CC2)CCC314 (stereo partly specified) | inconclusive: 31.6 µM [inhibitor, partial curve] | –

Reference: PubChem BioAssay AID720533 (National Center for Advancing Translational Sciences (NCATS), 2013)
